According to the supplement of paper PMC10849652:
Some of the results follow.

Sequences of proteins named here, by UniProt entry; tags and fusion partners are left off. A change or cut given only in a name is not applied to a line headed by its entry.
UniProt Q96CV9, whole entry, looked up: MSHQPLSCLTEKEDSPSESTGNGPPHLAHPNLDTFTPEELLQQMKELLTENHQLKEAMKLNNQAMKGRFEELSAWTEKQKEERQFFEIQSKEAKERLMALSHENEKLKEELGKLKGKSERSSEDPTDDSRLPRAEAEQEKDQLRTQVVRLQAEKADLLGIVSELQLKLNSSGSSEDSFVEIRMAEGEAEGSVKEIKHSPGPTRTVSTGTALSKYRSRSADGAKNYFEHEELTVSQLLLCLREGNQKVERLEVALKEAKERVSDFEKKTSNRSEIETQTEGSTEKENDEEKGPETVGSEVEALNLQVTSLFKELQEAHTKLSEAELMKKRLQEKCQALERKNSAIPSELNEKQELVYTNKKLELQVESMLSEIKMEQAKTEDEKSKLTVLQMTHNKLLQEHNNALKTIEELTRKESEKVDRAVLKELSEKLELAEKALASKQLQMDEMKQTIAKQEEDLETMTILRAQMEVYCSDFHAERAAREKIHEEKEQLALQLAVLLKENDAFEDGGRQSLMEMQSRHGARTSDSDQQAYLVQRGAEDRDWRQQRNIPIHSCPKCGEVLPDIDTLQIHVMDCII
UniProt Q9H0G5: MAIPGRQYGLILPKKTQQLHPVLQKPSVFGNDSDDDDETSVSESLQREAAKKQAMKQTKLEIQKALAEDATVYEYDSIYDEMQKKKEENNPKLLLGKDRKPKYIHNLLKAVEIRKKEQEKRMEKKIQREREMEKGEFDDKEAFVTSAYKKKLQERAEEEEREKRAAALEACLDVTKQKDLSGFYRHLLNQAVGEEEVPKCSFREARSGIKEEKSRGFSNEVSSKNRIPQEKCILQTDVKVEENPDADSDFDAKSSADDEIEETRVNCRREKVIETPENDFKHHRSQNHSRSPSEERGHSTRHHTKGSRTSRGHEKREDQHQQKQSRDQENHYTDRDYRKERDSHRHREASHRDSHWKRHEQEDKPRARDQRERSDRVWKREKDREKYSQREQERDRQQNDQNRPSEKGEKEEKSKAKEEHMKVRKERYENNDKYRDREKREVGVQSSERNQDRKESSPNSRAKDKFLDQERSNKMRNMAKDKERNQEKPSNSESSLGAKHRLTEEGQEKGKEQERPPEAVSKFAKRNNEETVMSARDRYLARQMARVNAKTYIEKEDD
UniProt P61970, whole entry, looked up: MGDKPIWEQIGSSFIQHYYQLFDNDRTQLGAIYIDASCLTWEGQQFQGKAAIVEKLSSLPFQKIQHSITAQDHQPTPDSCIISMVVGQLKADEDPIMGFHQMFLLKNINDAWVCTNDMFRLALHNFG
UniProt Q12769: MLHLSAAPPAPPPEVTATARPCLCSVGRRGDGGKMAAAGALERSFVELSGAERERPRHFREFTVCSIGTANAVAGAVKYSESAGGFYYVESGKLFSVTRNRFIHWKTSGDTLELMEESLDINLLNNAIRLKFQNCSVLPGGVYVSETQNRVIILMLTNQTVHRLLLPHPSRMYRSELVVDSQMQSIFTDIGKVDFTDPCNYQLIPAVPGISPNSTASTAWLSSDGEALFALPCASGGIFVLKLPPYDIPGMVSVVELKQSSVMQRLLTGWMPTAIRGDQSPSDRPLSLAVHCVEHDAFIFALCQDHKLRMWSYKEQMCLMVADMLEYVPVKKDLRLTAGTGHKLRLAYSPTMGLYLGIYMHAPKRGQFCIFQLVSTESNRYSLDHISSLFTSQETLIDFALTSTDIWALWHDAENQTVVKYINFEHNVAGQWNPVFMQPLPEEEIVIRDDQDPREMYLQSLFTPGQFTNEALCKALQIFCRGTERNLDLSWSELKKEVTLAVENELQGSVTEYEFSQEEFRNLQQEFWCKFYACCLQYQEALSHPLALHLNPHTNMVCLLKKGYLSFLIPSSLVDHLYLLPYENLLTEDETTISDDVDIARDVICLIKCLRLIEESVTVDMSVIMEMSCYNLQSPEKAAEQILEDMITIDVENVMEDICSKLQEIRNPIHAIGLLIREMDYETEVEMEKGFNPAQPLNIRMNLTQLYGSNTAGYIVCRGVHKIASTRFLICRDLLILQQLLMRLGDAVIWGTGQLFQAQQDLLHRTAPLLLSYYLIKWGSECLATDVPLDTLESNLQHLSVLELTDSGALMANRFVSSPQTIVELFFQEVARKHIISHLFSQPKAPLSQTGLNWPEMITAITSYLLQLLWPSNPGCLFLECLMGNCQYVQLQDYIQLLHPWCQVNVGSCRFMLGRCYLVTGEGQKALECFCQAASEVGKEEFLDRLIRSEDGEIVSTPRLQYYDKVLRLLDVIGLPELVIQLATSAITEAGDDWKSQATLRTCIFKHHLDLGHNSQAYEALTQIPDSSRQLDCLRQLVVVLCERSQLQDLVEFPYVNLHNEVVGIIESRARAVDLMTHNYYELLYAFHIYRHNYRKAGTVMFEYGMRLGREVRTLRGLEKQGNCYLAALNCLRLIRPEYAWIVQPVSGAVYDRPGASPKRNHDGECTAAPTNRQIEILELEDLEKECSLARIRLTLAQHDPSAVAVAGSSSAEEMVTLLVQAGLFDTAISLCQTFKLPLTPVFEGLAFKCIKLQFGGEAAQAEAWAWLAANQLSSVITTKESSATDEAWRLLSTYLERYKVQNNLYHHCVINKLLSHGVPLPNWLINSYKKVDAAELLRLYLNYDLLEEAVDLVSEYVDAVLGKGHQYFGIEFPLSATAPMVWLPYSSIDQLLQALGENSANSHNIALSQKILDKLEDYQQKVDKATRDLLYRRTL
UniProt Q32P28: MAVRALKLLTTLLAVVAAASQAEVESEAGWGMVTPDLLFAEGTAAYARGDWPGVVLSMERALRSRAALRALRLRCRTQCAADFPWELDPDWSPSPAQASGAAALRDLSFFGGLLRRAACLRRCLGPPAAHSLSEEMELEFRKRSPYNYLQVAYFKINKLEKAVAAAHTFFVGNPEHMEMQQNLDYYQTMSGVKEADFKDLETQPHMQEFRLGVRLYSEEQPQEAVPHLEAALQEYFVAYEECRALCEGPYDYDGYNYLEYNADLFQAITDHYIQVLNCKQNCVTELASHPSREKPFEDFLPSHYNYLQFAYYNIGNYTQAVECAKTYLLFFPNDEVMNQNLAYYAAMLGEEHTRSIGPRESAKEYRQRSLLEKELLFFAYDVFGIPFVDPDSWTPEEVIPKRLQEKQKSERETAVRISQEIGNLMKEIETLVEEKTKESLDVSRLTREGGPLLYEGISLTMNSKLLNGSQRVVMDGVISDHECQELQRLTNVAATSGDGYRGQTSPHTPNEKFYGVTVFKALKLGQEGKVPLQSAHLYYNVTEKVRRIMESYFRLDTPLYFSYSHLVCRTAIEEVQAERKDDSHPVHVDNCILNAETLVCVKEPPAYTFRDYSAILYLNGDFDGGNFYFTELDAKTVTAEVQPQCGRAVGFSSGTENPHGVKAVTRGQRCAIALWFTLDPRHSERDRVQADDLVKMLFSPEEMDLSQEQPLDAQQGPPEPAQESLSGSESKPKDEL
UniProt Q96CB9: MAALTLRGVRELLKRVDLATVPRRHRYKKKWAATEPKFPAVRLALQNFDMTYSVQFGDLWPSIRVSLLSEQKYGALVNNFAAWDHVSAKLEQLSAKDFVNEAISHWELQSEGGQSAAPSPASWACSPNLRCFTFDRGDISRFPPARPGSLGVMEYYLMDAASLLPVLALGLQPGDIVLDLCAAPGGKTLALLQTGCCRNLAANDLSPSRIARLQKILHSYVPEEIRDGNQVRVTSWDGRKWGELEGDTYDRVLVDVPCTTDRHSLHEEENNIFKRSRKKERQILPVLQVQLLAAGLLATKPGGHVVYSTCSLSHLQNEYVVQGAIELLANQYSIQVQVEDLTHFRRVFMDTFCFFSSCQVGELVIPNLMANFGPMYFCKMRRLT
UniProt Q92882: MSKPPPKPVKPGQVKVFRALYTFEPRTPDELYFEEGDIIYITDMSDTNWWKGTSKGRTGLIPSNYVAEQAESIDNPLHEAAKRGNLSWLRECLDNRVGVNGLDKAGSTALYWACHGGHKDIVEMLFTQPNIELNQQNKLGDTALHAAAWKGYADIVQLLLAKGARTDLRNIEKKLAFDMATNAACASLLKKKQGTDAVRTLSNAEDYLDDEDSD
UniProt Q8NFH3: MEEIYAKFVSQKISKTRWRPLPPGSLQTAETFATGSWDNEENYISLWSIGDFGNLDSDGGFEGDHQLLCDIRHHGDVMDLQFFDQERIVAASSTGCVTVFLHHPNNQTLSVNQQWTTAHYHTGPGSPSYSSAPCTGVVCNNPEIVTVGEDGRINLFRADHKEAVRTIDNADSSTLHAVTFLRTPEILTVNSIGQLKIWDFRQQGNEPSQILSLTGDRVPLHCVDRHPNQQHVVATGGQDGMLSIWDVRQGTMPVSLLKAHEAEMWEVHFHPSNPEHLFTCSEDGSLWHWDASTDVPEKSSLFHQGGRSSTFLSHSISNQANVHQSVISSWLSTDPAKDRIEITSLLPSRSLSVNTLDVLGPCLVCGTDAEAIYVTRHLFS
UniProt Q86UY8: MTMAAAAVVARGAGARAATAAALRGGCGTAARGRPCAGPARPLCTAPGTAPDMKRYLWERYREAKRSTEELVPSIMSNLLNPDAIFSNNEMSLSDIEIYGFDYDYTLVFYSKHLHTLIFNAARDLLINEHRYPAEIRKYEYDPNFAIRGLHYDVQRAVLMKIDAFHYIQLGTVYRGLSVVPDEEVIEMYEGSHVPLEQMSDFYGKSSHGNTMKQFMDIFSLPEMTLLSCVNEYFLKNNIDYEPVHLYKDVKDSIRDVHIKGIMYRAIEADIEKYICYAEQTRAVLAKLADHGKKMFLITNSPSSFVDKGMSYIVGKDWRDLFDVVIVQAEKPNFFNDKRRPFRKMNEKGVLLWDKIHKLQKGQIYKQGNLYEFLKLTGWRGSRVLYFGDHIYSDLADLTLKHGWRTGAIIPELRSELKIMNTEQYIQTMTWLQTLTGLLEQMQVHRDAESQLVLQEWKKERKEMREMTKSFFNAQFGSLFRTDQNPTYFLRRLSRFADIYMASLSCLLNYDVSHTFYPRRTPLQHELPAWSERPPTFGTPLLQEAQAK
UniProt Q9NRP0: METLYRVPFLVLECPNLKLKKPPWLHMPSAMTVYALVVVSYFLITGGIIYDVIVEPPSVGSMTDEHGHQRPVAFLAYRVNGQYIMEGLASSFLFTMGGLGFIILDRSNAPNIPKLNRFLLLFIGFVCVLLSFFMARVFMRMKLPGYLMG
UniProt Q86WC4: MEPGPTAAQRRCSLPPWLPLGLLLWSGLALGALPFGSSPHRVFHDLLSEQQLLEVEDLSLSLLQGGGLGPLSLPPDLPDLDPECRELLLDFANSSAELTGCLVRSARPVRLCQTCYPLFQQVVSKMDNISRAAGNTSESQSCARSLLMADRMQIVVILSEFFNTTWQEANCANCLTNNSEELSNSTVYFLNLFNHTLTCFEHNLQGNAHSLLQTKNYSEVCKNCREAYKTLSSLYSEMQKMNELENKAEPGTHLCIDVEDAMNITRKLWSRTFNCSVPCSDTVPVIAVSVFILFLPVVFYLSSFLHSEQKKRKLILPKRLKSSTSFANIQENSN
UniProt P13674: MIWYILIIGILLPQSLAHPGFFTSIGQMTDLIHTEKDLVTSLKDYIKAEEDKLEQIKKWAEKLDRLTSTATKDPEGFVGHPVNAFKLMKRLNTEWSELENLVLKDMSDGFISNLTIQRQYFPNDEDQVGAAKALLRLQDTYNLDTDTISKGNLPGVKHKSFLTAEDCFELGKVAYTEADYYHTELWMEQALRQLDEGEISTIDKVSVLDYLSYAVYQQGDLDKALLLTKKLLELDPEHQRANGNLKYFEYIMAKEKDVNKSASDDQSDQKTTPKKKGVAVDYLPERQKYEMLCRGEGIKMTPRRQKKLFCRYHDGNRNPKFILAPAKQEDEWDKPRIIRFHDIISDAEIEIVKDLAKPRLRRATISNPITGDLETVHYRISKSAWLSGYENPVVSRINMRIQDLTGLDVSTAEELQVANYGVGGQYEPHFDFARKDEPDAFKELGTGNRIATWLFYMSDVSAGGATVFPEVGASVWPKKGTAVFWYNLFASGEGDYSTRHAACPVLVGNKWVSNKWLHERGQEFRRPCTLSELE
UniProt P37198: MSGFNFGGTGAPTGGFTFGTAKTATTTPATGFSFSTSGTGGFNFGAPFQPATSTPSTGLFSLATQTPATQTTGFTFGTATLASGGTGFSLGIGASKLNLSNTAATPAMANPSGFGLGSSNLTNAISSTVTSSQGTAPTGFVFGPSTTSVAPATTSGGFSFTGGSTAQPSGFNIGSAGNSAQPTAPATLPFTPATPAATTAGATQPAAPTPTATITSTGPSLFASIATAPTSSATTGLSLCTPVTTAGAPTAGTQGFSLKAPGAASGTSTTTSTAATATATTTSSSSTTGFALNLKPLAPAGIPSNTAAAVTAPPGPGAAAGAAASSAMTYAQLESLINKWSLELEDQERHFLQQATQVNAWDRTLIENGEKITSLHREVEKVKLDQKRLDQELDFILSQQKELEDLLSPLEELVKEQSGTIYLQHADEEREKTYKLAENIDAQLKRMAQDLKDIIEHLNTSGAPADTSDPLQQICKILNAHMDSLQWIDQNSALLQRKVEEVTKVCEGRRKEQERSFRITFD

Legend:
Experiment in all cases: log2 fold change, soluble protein after heating vs DMSO (PISA); higher = thermal stabilisation; K562 cells, 10 uM, 30 min; active = over 0.2 and 3.5 SD of the protein, either way, in both replicates (recomputed)
bafetinib = compound: Cc1ccc(NC(=O)c2ccc(CN3CC[C@H](N(C)C)C3)c(C(F)(F)F)c2)cc1Nc1nccc(-c2cncnc2)n1 [bafetinib]
Summary of the method: (§1)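 For each measurement, 10 μM compound was applied for 30 min to K562 cells at 2×10^6 cells/mL. Aliquots were heated for 3 min across 48°C-58°C, pooled, and extracted in PBS with 0.5% NP-40 at 4°C; the supernatant after 21,000xg for 90 min was soluble protein. This was quantified by TMTpro 16plex LC-MS/MS with channel sums equalised, and thermal stability was reported relative to control samples from duplicates, on a log2 fold-change scale.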

[1] = compound: Cc1cccc(CC(=O)N2CCc3c2ccc(-c2cn(C)c4ncnc(N)c24)c3F)n1
Summary of the method: as §1

nilotinib = compound: Cc1cn(-c2cc(NC(=O)c3ccc(C)c(Nc4nccc(-c5cccnc5)n4)c3)cc(C(F)(F)F)c2)cn1 [nilotinib]
Summary of the method: as §1

[2] = compound: Cc1nc(Nc2n[nH]c3c2CN(C(=O)N[C@H](CN(C)C)c2ccccc2)C3(C)C)c2sccc2n1
Summary of the method: as §1

dasatinib = compound: Cc1nc(Nc2ncc(C(=O)Nc3c(C)cccc3Cl)s2)cc(N2CCN(CCO)CC2)n1 [dasatinib]
Summary of the method: as §1

[3] = compound: Cc1ncc(-c2ccnc(Nc3ccc(S(C)(=O)=O)cc3)n2)n1C(C)C
Summary of the method: as §1

[4] = compound: Cn1cc(-c2ccc3c(c2)CCN3C(=O)Cc2cccc(C(F)(F)F)c2)c2c(N)ncnc21
Summary of the method: as §1

[5] = compound: Cn1cc(-c2ccc3nnc(C(F)(F)c4ccc5ncccc5c4)n3n2)cn1
Summary of the method: as §1

tipifarnib = compound: Cn1cncc1[C@@](N)(c1ccc(Cl)cc1)c1ccc2c(c1)c(-c1cccc(Cl)c1)cc(=O)n2C [tipifarnib]
Summary of the method: as §1

mubritinib = compound: FC(F)(F)c1ccc(/C=C/c2nc(COc3ccc(CCCCn4ccnn4)cc3)co2)cc1 [mubritinib]
Summary of the method: as §1

Measured: log2 fold change

OCIAD1 (UniProt Q9NX40)
inactive: bafetinib -0.024 | [1] -0.091 | nilotinib 0.06 | [2] 0.054 | dasatinib 0.028 | [3] 0.002 | [4] 0.012 | [5] 0.004 | tipifarnib 0.01 | mubritinib 0.026

NT5C3A (UniProt Q9H0P0)
inactive: bafetinib 0.133 | [1] 0.063 | nilotinib 0.081 | [2] -0.022 | dasatinib -0.037 | [3] -0.027 | [4] -0.034 | [5] -0.04 | tipifarnib -0.016 | mubritinib 0.271

OGA (UniProt O60502)
inactive: bafetinib -0.013 | [1] -0.006 | nilotinib -0.001 | [2] 0.014 | dasatinib -0.052 | [3] -0.024 | [4] 0.029 | [5] 0.01 | tipifarnib 0.002 | mubritinib 0.057

OSBPL9 (UniProt Q96SU4)
inactive: bafetinib 0.149 | [1] 0.033 | nilotinib 0.156 | [2] -0.191 | dasatinib 0.403 | [3] -0.171 | [4] 0.023 | [5] -0.112 | tipifarnib -0.282 | mubritinib 0.075

PABPC1 (UniProt P11940)
inactive: bafetinib 0.047 | [1] -0.019 | nilotinib -0.024 | [2] -0.007 | dasatinib 0.047 | [3] 0.027 | [4] -0.115 | [5] -0.028 | tipifarnib 0.047 | mubritinib -0.029

PAAT (UniProt Q9H8K7)
inactive: bafetinib -0.009 | [1] -0.006 | nilotinib -0.137 | [2] -0.015 | dasatinib -0.014 | [3] 0.133 | [4] -0.024 | [5] 0 | tipifarnib 0.016 | mubritinib 0.09

NUDT1 (UniProt P36639)
inactive: bafetinib 0.129 | [1] 0.052 | nilotinib -0.087 | [2] 0.271 | dasatinib -0.127 | [3] 0.301 | [4] 0.194 | [5] 0.06 | tipifarnib -0.069 | mubritinib 0.137

OPTN (UniProt Q96CV9)
inactive: bafetinib 0.069 | [1] -0.09 | nilotinib -0.048 | [2] -0.018 | dasatinib -0.007 | [3] -0.125 | [4] -0.018 | [5] -0.074 | tipifarnib 0.083 | mubritinib -0.043

Seven neighbouring entries already listed:
NT5C3A (UniProt Q9H0P0)
inactive: bafetinib 0.133 | [1] 0.063 | nilotinib 0.081 | [2] -0.022 | dasatinib -0.037 | [3] -0.027 | [4] -0.034 | [5] -0.04 | tipifarnib -0.016 | mubritinib 0.271

OGA (UniProt O60502)
inactive: bafetinib -0.013 | [1] -0.006 | nilotinib -0.001 | [2] 0.014 | dasatinib -0.052 | [3] -0.024 | [4] 0.029 | [5] 0.01 | tipifarnib 0.002 | mubritinib 0.057

OSBPL9 (UniProt Q96SU4)
inactive: bafetinib 0.149 | [1] 0.033 | nilotinib 0.156 | [2] -0.191 | dasatinib 0.403 | [3] -0.171 | [4] 0.023 | [5] -0.112 | tipifarnib -0.282 | mubritinib 0.075

PABPC1 (UniProt P11940)
inactive: bafetinib 0.047 | [1] -0.019 | nilotinib -0.024 | [2] -0.007 | dasatinib 0.047 | [3] 0.027 | [4] -0.115 | [5] -0.028 | tipifarnib 0.047 | mubritinib -0.029

PAAT (UniProt Q9H8K7)
inactive: bafetinib -0.009 | [1] -0.006 | nilotinib -0.137 | [2] -0.015 | dasatinib -0.014 | [3] 0.133 | [4] -0.024 | [5] 0 | tipifarnib 0.016 | mubritinib 0.09

NUDT1 (UniProt P36639)
inactive: bafetinib 0.129 | [1] 0.052 | nilotinib -0.087 | [2] 0.271 | dasatinib -0.127 | [3] 0.301 | [4] 0.194 | [5] 0.06 | tipifarnib -0.069 | mubritinib 0.137

OPTN (UniProt Q96CV9)
inactive: bafetinib 0.069 | [1] -0.09 | nilotinib -0.048 | [2] -0.018 | dasatinib -0.007 | [3] -0.125 | [4] -0.018 | [5] -0.074 | tipifarnib 0.083 | mubritinib -0.043

Going on with the list:

NSRP1 (UniProt Q9H0G5)
inactive: bafetinib -0.15 | [1] -0.008 | nilotinib 0.033 | [2] -0.255 | dasatinib 0.089 | [3] -0.108 | [4] -0.084 | [5] -0.1 | tipifarnib 0.108 | mubritinib -0.069

OCRL (UniProt Q01968)
inactive: bafetinib 0.121 | [1] 0.034 | nilotinib -0.118 | [2] 0.142 | dasatinib 0.142 | [3] 0.027 | [4] 0.06 | [5] -0.002 | tipifarnib -0.139 | mubritinib -0.048

NUMB (UniProt P49757)
inactive: bafetinib -0.013 | [1] 0.022 | nilotinib -0.05 | [2] -0.078 | dasatinib 0.017 | [3] -0.12 | [4] 0.063 | [5] -0.008 | tipifarnib 0.059 | mubritinib -0.053

NUFIP2 (UniProt Q7Z417)
inactive: bafetinib 0.063 | [1] -0.041 | nilotinib 0.071 | [2] 0.097 | dasatinib 0.102 | [3] -0.039 | [4] -0.112 | [5] -0.123 | tipifarnib 0.048 | mubritinib -0.054

NUTF2 (UniProt P61970)
inactive: bafetinib -0.031 | [1] 0.035 | nilotinib 0.084 | [2] -0.008 | dasatinib -0.051 | [3] -0.016 | [4] 0.084 | [5] 0.129 | tipifarnib -0.066 | mubritinib 0.044

OGDH (UniProt Q02218)
inactive: bafetinib 0.177 | [1] 0.171 | nilotinib -0.03 | [2] 0.161 | dasatinib 0.002 | [3] -0.025 | [4] 0.038 | [5] 0.078 | tipifarnib 0.056 | mubritinib 0.191

NUP160 (UniProt Q12769)
inactive: bafetinib -0.127 | [1] 0.043 | nilotinib -0.078 | [2] -0.136 | dasatinib -0.045 | [3] -0.06 | [4] -0.025 | [5] -0.034 | tipifarnib -0.042 | mubritinib -0.042

P3H1 (UniProt Q32P28)
inactive: bafetinib 0.03 | [1] -0.018 | nilotinib 0.036 | [2] 0.069 | dasatinib 0.035 | [3] -0.043 | [4] -0.068 | [5] -0.034 | tipifarnib 0.073 | mubritinib -0.143

NSUN4 (UniProt Q96CB9)
inactive: bafetinib 0.107 | [1] 0.026 | nilotinib 0.078 | [2] -0.034 | dasatinib -0.042 | [3] 0.046 | [4] -0.055 | [5] -0.052 | tipifarnib 0.019 | mubritinib -0.016

NUBP2 (UniProt Q9Y5Y2)
inactive: bafetinib -0.019 | [1] -0.075 | nilotinib -0.127 | [2] -0.049 | dasatinib -0.155 | [3] -0.061 | [4] 0.088 | [5] -0.001 | tipifarnib 0.02 | mubritinib -0.041

OSTF1 (UniProt Q92882)
inactive: bafetinib -0.085 | [1] 0.078 | nilotinib 0.027 | [2] 0.016 | dasatinib -0.066 | [3] 0.342 | [4] -0.02 | [5] 0.034 | tipifarnib -0.069 | mubritinib -0.01

NUP54 (UniProt Q7Z3B4)
inactive: bafetinib 0.023 | [1] 0.036 | nilotinib -0.008 | [2] -0.016 | dasatinib -0.167 | [3] -0.03 | [4] 0.087 | [5] 0.005 | tipifarnib -0.072 | mubritinib 0.1

NUP43 (UniProt Q8NFH3)
inactive: bafetinib 0.01 | [1] 0.006 | nilotinib 0.018 | [2] 0 | dasatinib 0.107 | [3] 0.011 | [4] 0.006 | [5] -0.065 | tipifarnib -0.048 | mubritinib 0.055

NUMA1 (UniProt Q14980)
inactive: bafetinib 0.121 | [1] 0.005 | nilotinib 0.031 | [2] -0.22 | dasatinib 0.019 | [3] -0.013 | [4] -0.194 | [5] -0.031 | tipifarnib 0.086 | mubritinib -0.043

NSMCE2 (UniProt Q96MF7)
active: [1] 0.282
inactive: bafetinib -0.059 | nilotinib 0.014 | [2] -0.202 | dasatinib 0.025 | [3] 0.016 | [4] 0.016 | [5] -0.104 | tipifarnib 0.008 | mubritinib 0.009

NT5DC3 (UniProt Q86UY8)
inactive: bafetinib -0.041 | [1] -0.01 | nilotinib 0.003 | [2] 0.027 | dasatinib 0.054 | [3] 0.023 | [4] 0.064 | [5] -0.01 | tipifarnib 0.052 | mubritinib 0.027

OSTC (UniProt Q9NRP0)
inactive: bafetinib -0.137 | [1] 0.027 | nilotinib -0.047 | [2] -0.013 | dasatinib -0.059 | [3] -0.029 | [4] 0.057 | [5] 0.069 | tipifarnib -0.013 | mubritinib 0.044

OGFR (UniProt Q9NZT2)
inactive: bafetinib -0.041 | [1] 0.114 | nilotinib -0.024 | [2] -0.093 | dasatinib -0.114 | [3] -0.008 | [4] 0.036 | [5] -0.002 | tipifarnib 0.025
active: mubritinib 0.328

OSTM1 (UniProt Q86WC4)
inactive: bafetinib -0.208 | [1] 0.091 | nilotinib 0.044 | [2] 0.017 | dasatinib -0.086 | [3] -0.068 | [4] 0.076 | [5] 0.029 | tipifarnib 0.008 | mubritinib -0.048

P4HA1 (UniProt P13674)
inactive: bafetinib 0.047 | [1] -0.005 | nilotinib -0.018 | [2] 0.069 | dasatinib 0.067 | [3] -0.073 | [4] -0.117 | [5] 0.006 | tipifarnib 0.09 | mubritinib -0.112

NUP62 (UniProt P37198)
inactive: bafetinib -0.004 | [1] -0.018 | nilotinib -0.055 | [2] -0.027 | dasatinib -0.026 | [3] -0.006 | [4] -0.047 | [5] -0.073 | tipifarnib -0.032 | mubritinib 0.022

NUDT19 (UniProt A8MXV4)
inactive: bafetinib -0.066 | [1] -0.013 | nilotinib 0.024 | [2] 0.01 | dasatinib -0.029 | [3] -0.011 | [4] 0.003 | [5] -0.041 | tipifarnib -0.116 | mubritinib 0.049
